Assay results reported in patent publication US20140079713A1.

B1: BOC-GFP (receptor, mouse, UniProt Q6AZB0 26-1110, looked up, not shown: large carriers)
chain: DLNEVPQVTVQPMSTVQKLGGTVILGCVVEPPWMNVTWRFNGKELNGSDDALGVFITRGTLVIAALNNHTVGRYQCVARMPAGAVASVPATVTLANLQDFKLDVQHVIEVDEGNTAVIACHLPESHPKAQVRYSVKQEWLEASRDNYLIMPSGNLQIVNASQEDEGMYKCAAYNPVTQEVKTSGSGDRLRVRRSTAEAARIIYPLEAQTVIVTKGQSLILECVASGIPPPRVTWAKDGSSIAAYNKTRFLLSNLLIDTTSEEDSGTYRCMASNGVGDPGAAVILYNVQVFEPPEVTVELSQLVIPWGQSAKLTCEVRGNPPPSVLWLRNAVPLTSSQRLRLSRRALRVVSVGPEDEGVYQCMAENAVGSAHAVVQLRTARPDTTLRPGRDTKPIAATPPMPPSRPSRPDQMLREQPGLVKPPTSSVQPTSLKCPGEEQVAPAEAPIILSSPRTSKTDSYELVWRPRHEGSSRTPILYYVVKHRKVTNSSDDWTISGIPANQHRLTLTRLDPGSLYEVEMAAYNCAGEGQTAMVTFRTGRRPKPEIVASKEQQIQRDDPGASLQSSSQPDHGRLSPPEAPDRPTISTASETSVYVTWIPRGNGGFPIQSFRVEYKKLKKVGDWILATSAIPPSRLSVEITGLEKGISYKFRVRALNMLGESEPSAPSRPYVVSGYSGRVYERPVAGPYITFTDAVNETTIMLKWMYIPASNNNTPIHGFYIYYRPTDSDNDSDYKKDMVEGDRYWHSISHLQPETSYDIKMQCFNEGGESEFSNVMICETKARKFSGQPGRPPPLTLAPPQPPPLETMERPVGTGAMVARASDLPYLIVGVVLGSIVLIIVTFIPFCLWRAWSKQKHTTDLGFPRSALLSSSCQYTMVPLEGLPGHQANGQPYLGGVSGRACVSRVHGSRGCPAATVGCPGRKPQQHCPGELAQQREDTNSQLRQPIVSNGYDLQNQQVARGPQCASGVGAFLYTLPDDSTHQLLQPQDCCHLQKQPVTTCQTAVRRTSESPGLESSWDPPYHSGPRCCLGLVPVEEVDSSDSCQVGGGDWSSQHPSGTYTGQERGMRFSPSPSVHVSFETPPPTI
B2: GAS1 (receptor, mouse, UniProt Q01721 39-315, looked up)
chain: LAHGRRLICWQALLQCQGEPDCSYAYSQYAEACAPVLAQRGGADAPGPAGAFPASAASSPRWRCPSHCISALIQLNHTRRGPALEDCDCAQDEHCRSTKRAIEPCLPRTSSVGPGAGAGSVMGCTEARRRCDRDSRCNLALSRYLAYCGKLFNGLRCTDECRAVIEDMLAVPKAALLNDCVCDGLERPICESVKENMARLCFGPDASNGPGSSGSDGGLDDYYDEEYDDEQRAGAAGGEQPLDDDDGLARPGGGAAAAGGRGDLPHGPGRRSSSSGS

Key:
PTCH1-HA = experiment: co-immunoprecipitation (anti-GFP IP, anti-HA blot), COS7 lysates
Smo-GFP = experiment: co-immunoprecipitation (anti-GFP IP), COS7 lysates
Disp1-YFP = experiment: co-immunoprecipitation (anti-GFP IP), COS7 lysates

| binding (PTCH1-HA) | binding (Smo-GFP) | binding (Disp1-YFP) | Binder |
| --- | --- | --- | --- |
| binds |  |  | B1 |
|  | no binding | no binding | B2 |

No constants are given. Whether binding was seen depends on the method and setting. In cells and extracts the contact can be indirect. For part of these data: Binding calls can cover weak binding; strength is not graded here. For part of these data: Sequences can lack the tags named with a protein.
